{
  "source": "PubChem BioAssay AID504467",
  "about": "(National Center for Advancing Translational Sciences (NCATS), 2011)",
  "note": "Screen size: about 330,000 compounds; about 7,700 (2.3%) were called active. The shares of active, inactive and inconclusive entries below differ from those in the screen. Calls follow the shape of the dose curve; as a rule, active = well fitted inhibition curve with a large enough effect; inconclusive = small, poorly fitted or top-dose-only effect, or effect the other way; inactive = flat fitted curve, though single readings scatter. Potencies beside an inconclusive call are fits to weak or partial responses and may not hold up. % is scaled to controls: 0 for no effect and ±100 for the full control effect; potency is read from the fitted curve at half-maximal effect.",
  "data": [
    {"assay": "qHTS screen for small molecules that inhibit ELG1-dependent DNA repair in human embryonic kidney (HEK293T) cells expressing luciferase-tagged ELG1; also: nearly all actives have a fitted effect of over 55% in size", "conditions": "HEK293T ELG1-luciferase reporter, luminescence, 16 h, DNA damage induced by 5-fluorouridine; activity change, negative = inhibition: at 46.1 µM (top of the series)", "in_short": "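Quantitative HTS, concentration-response format. 2,000 cells/well co-treated with 5-fluorouridine and compound, 16 hr in 5% CO2 at 37 °C; ONE-Glo luminescence read after 30 min.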", "values": [
      {"smiles": "CCCCOc1ccc(C(=O)NNC(=O)c2cnccn2)cc1OC", "Potency": "inconclusive: 20.6 µM [inhibitor, partial curve, poor fit]"},
      {"smiles": "O=[N+]([O-])c1ncccc1OCc1ccc(Cl)c(Cl)c1", "Potency": "inconclusive: 16.4 µM [activator, partial curve]"},
      {"smiles": "C=CCOc1ccccc1CN(CCc1ccccc1)C(=O)c1cccc(S(C)(=O)=O)c1", "Potency": "inconclusive: 32.6 µM [inhibitor, single point]"},
      {"smiles": "Cc1ccc(N2CN(CCC3=CCCCC3)CNC2=S)cc1", "Potency": "inconclusive: 11.6 µM [inhibitor, partial curve]"},
      {"smiles": "COc1ccc(N=Cc2[nH]c3ccccc3c2O)cc1", "Potency": "inconclusive: 4.61 µM [activator, single point]"},
      {"smiles": "COc1ccc(/C=N/Nc2cc(C)nc3ccc(OC)cc23)c(OC)c1", "Potency": "inconclusive: 23.1 µM [inhibitor, single point]"},
      {"smiles": "COc1cc(C(=O)NCc2nnc(SCC(=O)NCCc3ccccc3)o2)cc(OC)c1OC", "activity change, negative = inhibition": "inactive: -18.2%"},
      {"smiles": "CC(=O)c1c(C(C)=O)c(C)n(NC(=O)c2ccccc2Cl)c1C", "activity change, negative = inhibition": "inactive: -1.72%"},
      {"smiles": "CCCCn1ccnc1C(=O)c1cccc(S(=O)(=O)N2c3ccccc3CC2C)c1", "note": "(stereo not given)", "Potency": "inconclusive: 18.4 µM [inhibitor, partial curve]"},
      {"smiles": "O=C(CSCc1ccc(F)cc1)NCc1ccco1", "Potency": "inconclusive: 18.4 µM [activator, single point]"},
      {"smiles": "O=C(Nc1ccc(C(=O)N2CCOCC2)cc1)c1cc(-c2cccnc2)nc2ccc(Br)cc12", "Potency": "active: 9.2 µM"},
      {"smiles": "CCOC(=O)c1c(-c2ccccc2)csc1NC(=O)c1cccc(N2C(=O)CCC2=O)c1", "Potency": "inconclusive: 18.4 µM [inhibitor, partial curve, poor fit]"},
      {"smiles": "COc1ccc2[nH]c3c(=O)n(CCN4CCOCC4)cnc3c2c1", "Potency": "inconclusive: 23.1 µM [activator, partial curve, poor fit]"},
      {"smiles": "COc1ccc(NC(=O)Nc2ccc3c(c2)C(=O)N([C@H](C)CO)C[C@H](C)[C@@H](CN(C)C(=O)Nc2ccc(OC)cc2)O3)cc1", "activity change, negative = inhibition": "inactive: 14.3%"},
      {"smiles": "O=[N+]([O-])c1cc(S(=O)(=O)NCCN2CCOCC2)ccc1Sc1nnnn1-c1ccccc1", "Potency": "inconclusive: 29.1 µM [inhibitor, single point]"},
      {"smiles": "CCOc1ccc(CCNC(=O)c2ccc3c(=O)[nH]c4c(C(=O)NC(C)C)sc(=S)n4c3c2)cc1", "Potency": "inconclusive: 32.6 µM [inhibitor, single point]"},
      {"smiles": "Cc1cccc(N(C)C(=O)c2cc3cc4ccc(C)cc4nc3o2)c1", "Potency": "inconclusive: 8.2 µM [activator, partial curve]"},
      {"smiles": "Cc1c(Cl)c(C(=O)N2CCCc3ccccc32)nn1C", "Potency": "inconclusive: 9.2 µM [activator, partial curve, poor fit]"},
      {"smiles": "O=C(O)CSCc1nc2cccnc2n1C1CCCCC1", "activity change, negative = inhibition": "inactive: 0.307%"},
      {"smiles": "CC(C)C[C@@H](C(=O)NCC1CCCO1)N1C(=O)N2CCc3c([nH]c4ccccc34)[C@@]2(C)C1=O", "note": "(stereo not given in full)", "activity change, negative = inhibition": "inactive: -2.11%"},
      {"smiles": "O=C(/C=C/c1cnc2ccccc2n1)NC12CC3CC(CC(C3)C1)C2", "Potency": "inconclusive: 2.06 µM [activator, partial curve]"},
      {"smiles": "c1ccc(CCSc2nccn2-c2ccccc2)cc1", "Potency": "inconclusive: 9.2 µM [activator, partial curve]"},
      {"smiles": "Cc1ccc2[nH]c3c(NCc4ccccc4)ncnc3c2c1", "Potency": "inconclusive: 23.1 µM [inhibitor, partial curve, poor fit]"},
      {"smiles": "O=C(NCCCN1CCCC1=O)c1ccccc1NS(=O)(=O)c1ccc(F)cc1", "Potency": "inconclusive: 29.1 µM [activator, partial curve, poor fit]"},
      {"smiles": "CCCOC(=O)c1c(NC(=O)/C=C/c2cnn(C)c2C)sc(C(=O)OCC)c1C", "Potency": "inconclusive: 5.17 µM [inhibitor, full curve]"},
      {"smiles": "CCOC(=O)c1ccc(-c2ccc3c(=O)c4ccccc4n(C)c3c2)cc1F", "activity change, negative = inhibition": "inactive: -13.5%"},
      {"smiles": "Cc1cc(/C=N/NC(N)=O)c(C)c(CO)c1", "Potency": "inconclusive: 32.6 µM [activator, partial curve, poor fit]"},
      {"smiles": "O=C(Cc1cccs1)NCc1ccccc1F", "Potency": "inconclusive: 18.4 µM [activator, partial curve]"},
      {"smiles": "Cc1ccc(C(=O)NC2CCCCNC2=O)cc1C", "note": "(stereo not given)", "Potency": "inconclusive: 13 µM [activator, partial curve]"},
      {"smiles": "Cc1ccc(N(C)S(=O)(=O)c2cccc(C(=O)N(C)Cc3cnn(-c4ccccc4)c3)c2)cc1", "Potency": "active: 16.4 µM"},
      {"smiles": "Cc1ccc2c(CN3CCN(Cc4ccccc4)CC3)cc(=O)oc2c1C", "Potency": "inconclusive: 18.3 µM [inhibitor, partial curve, poor fit]"},
      {"smiles": "CC(C)N(C(=O)[C@H]1CC(CC(=O)NCc2cccc(C(F)(F)F)c2)C(=O)N2CCc3c([nH]c4ccccc34)[C@]12C)C(C)C", "note": "(stereo not given in full)", "Potency": "inconclusive: 29.1 µM [inhibitor, single point]"},
      {"smiles": "Cc1ccc(OCCSCc2nnc(NC(=O)Nc3cccc(Cl)c3)s2)cc1", "Potency": "inconclusive: 1.46 µM [inhibitor, full curve]"},
      {"smiles": "COc1ccc(NC(=O)c2ccccc2SC)cc1OC", "Potency": "inconclusive: 23.1 µM [activator, partial curve, poor fit]"},
      {"smiles": "CC(=O)NC1=NN(C(C)=O)C(c2ccccc2)S1", "note": "(stereo not given)", "Potency": "inconclusive: 20.6 µM [activator, single point]"},
      {"smiles": "O=C(NCc1ccco1)c1ccc(S(=O)(=O)N2CCCc3ccccc32)cc1", "Potency": "inconclusive: 10.3 µM [inhibitor, single point]"},
      {"smiles": "COc1ccc(C(=O)NC(=S)Nc2ccc(CN3CCOCC3)cc2)cc1OC", "activity change, negative = inhibition": "inactive: -35.3%"},
      {"smiles": "O=C(COc1ccc(Br)cc1)N1CCN(c2ccccc2)CC1", "Potency": "inconclusive: 25.9 µM [activator, partial curve, poor fit]"},
      {"smiles": "O=C(CCS(=O)(=O)c1ccccc1)Nc1ccccc1F", "Potency": "inconclusive: 23.1 µM [activator, single point]"},
      {"smiles": "COc1ccccc1NC(C)C(=O)N/N=C/c1ccccc1OCc1cccc(Br)c1", "note": "(stereo not given)", "activity change, negative = inhibition": "inactive: -17.4%"},
      {"smiles": "COc1ccc(-c2n(CC(=O)OC3CC(C)CCC3C(C)C)c3ccccc3[n+]2C)cc1", "note": "(stereo not given)", "activity change, negative = inhibition": "inactive: 12.5%"},
      {"smiles": "Cc1ccc(S(=O)(=O)N2CCCN(S(=O)(=O)c3ccc4c(c3)OCCO4)CC2)cc1", "Potency": "inconclusive: 20.6 µM [inhibitor, partial curve, poor fit]"},
      {"smiles": "COc1ccc(-c2csc(NC(=S)NC(=O)/C=C/c3ccco3)n2)cc1OC", "Potency": "inconclusive: 7.31 µM [inhibitor, single point]"},
      {"smiles": "CCCC(=O)Nc1ccc2c(c1)nc1n2CCN(CCOC)C1", "activity change, negative = inhibition": "inactive: -5.28%"},
      {"smiles": "COc1ccc(C(CCN(Cc2ccc(OC)c(OC)c2)C(C)=O)C(C)C)cc1", "note": "(stereo not given)", "Potency": "inconclusive: 16.4 µM [inhibitor, partial curve]"},
      {"smiles": "CCCS(=O)(=O)c1nc(S(=O)(=O)c2ccc(C)cc2)c(NCCCN(C)C)s1", "Potency": "inconclusive: 23.1 µM [activator, single point]"},
      {"smiles": "COc1ccc(OCC(O)CN2CCOCC2)cc1", "note": "(stereo not given)", "Potency": "inconclusive: 35.5 µM [activator, single point]"},
      {"smiles": "CC(=C1C(=O)c2ccccc2C1=O)N1CCc2ccccc2C1", "Potency": "inconclusive: 18.4 µM [activator, partial curve, poor fit]"},
      {"smiles": "Cc1c(NC(=O)Nc2ccccc2Cl)c(=O)n(-c2ccccc2)n1C", "activity change, negative = inhibition": "inactive: -3.68%"},
      {"smiles": "CCCCc1nc(SCC(=O)N2CCCCC2)c2c(=O)n(C)c(=O)n(C)c2n1", "Potency": "inconclusive: 20.6 µM [inhibitor, single point]"},
      {"smiles": "NS(=O)(=O)c1ccc(CCNC(=O)Nc2ccc(Cl)c(Cl)c2)cc1", "Potency": "inconclusive: 25.9 µM [inhibitor, single point]"},
      {"smiles": "O=C(COc1ccccc1Cl)NC(=S)Nc1ccccc1N1CCCC1", "activity change, negative = inhibition": "inactive: -0.0562%"},
      {"smiles": "O=C1C2C3C=CC(C4CC34)C2C(=O)N1/N=C/c1ccc(-c2ccc(Cl)cc2[N+](=O)[O-])o1", "note": "(stereo not given)", "Potency": "inconclusive: 5.8 µM [inhibitor, partial curve]"},
      {"smiles": "CN(C)CCSc1nnc2sc3ccccc3n12", "activity change, negative = inhibition": "inactive: 9.36%"},
      {"smiles": "CC(=O)c1cccc(NC(=O)C2CCCN(S(=O)(=O)c3cccc4nonc34)C2)c1", "note": "(stereo not given)", "Potency": "inconclusive: 5.8 µM [inhibitor, partial curve, poor fit]"},
      {"smiles": "CCc1ccccc1NC(=O)Nc1ccc2c(c1)OCO2", "Potency": "inconclusive: 18.3 µM [activator, single point]"},
      {"smiles": "CNC(=S)N/N=C/c1ccc2c(c1)OCCO2", "Potency": "inconclusive: 16.4 µM [activator, partial curve]"},
      {"smiles": "CC(C)C(=O)Nc1cccc(NC(=O)c2cccc([N+](=O)[O-])c2)c1", "Potency": "inconclusive: 18.4 µM [inhibitor, single point]"},
      {"smiles": "Cc1ccc(C(=O)Nc2cccc(-c3cn4ccccc4n3)c2)cc1", "Potency": "inconclusive: 13 µM [inhibitor, single point]"},
      {"smiles": "O=C(CCc1nc2ccccc2c(=O)[nH]1)Nc1nc(-c2cccs2)cs1", "activity change, negative = inhibition": "inactive: 0%"},
      {"smiles": "Cc1ccc2c(c1)c1nnc(SCC(=O)N3CCCc4ccccc43)nc1n2CC(=O)O", "Potency": "inconclusive: 14.6 µM [activator, partial curve]"},
      {"smiles": "Cc1nnc(NC(=O)CSc2ccc(-c3ccc(Cl)cc3)nn2)s1", "Potency": "inconclusive: 25.9 µM [activator, single point]"},
      {"smiles": "CC1CCN(CCOc2cccc(Br)c2)CC1", "activity change, negative = inhibition": "inactive: 6.15%"},
      {"smiles": "COc1ccc(CCNC(=O)c2cc(COc3c(F)cccc3F)on2)c(OC)c1", "Potency": "inconclusive: 20.6 µM [activator, partial curve]"},
      {"smiles": "CC1(C(=O)N2CCC(CC3CC(c4cccc(Br)c4)=NO3)(C(=O)NCC3CCCCC3)CC2)CC1", "note": "(stereo not given)", "Potency": "inconclusive: 20.6 µM [inhibitor, single point]"}
    ]}
  ]
}
